According to paper PMC12864446:

B1: FtSH8 (enzyme, UniProt Q8W585 74-685)
chain: DEQGQGVSSSRMSYSRFLEYLDKGRVEKVDLYENGTIAIVEAVSPELGNRIQRVRVQLPGLSQELLQKLRAKNIDFAAHNAQEDQGSPILNLIGNLAFPVILIGGLFLLSRRSSGGMGGPGGPGFPLQIGQSKAKFQMEPNTGVTFDDVAGVDEAKQDFMEVVEFLKKPERFTAVGARIPKGVLLVGPPGTGKTLLAKAIAGEAGVPFFSISGSEFVEMFVGVGASRVRDLFKKAKENAPCIVFVDEIDAVGRQRGTGIGGGNDEREQTLNQLLTEMDGFEGNTGVIVVAATNRADILDSALLRPGRFDRQVSVDVPDVKGRTDILKVHSGNKKFESGVSLEVIAMRTPGFSGADLANLLNEAAILAGRRGKTAISSKEIDDSIDRIVAGMEGTVMTDGKSKSLVAYHEVGHAICGTLTPGHDAVQKVTLIPRGQARGLTWFIPSDDPTLISKQQLFARIVGGLGGRAAEEVIFGESEVTTGAVSDLQQITGLAKQMVTTFGMSEIGPWSLMDSSEQSDVIMRMMARNSMSEKLANDIDTAVKTLSDKAYEIALSQIRNNREAMDKIVEILLEKETMSGDEFRAILSEFTEIPPENRVASSTSTSTPTPASV
B2: HCF173 (protein, UniProt Q8W4D6 80-598)
chain: AKKLDVAPPSPQSPPSPPTLKLDDVNPVGLGRRSRQIFDEVWRKFSGLGQMSRTTRPDEQETLDSLLIREGPMCEFAVPGAQNVTVLVVGATSRIGRIVVRKLMLRGYTVKALVRKQDEEVMSMLPRSVDIVVGDVGEPSTLKSAVESCSKIIYCATARSTITADLTRVDHLGVYNLTKAFQDYNNRLAQLRAGKSSKSKLLLAKFKSAESLDGWEIRQGTYFQDTTASKYDGGMDAKFEFTETERAEFSGYVFTRGGYVELSKKLSLPLGTTLDRYEGLVLSVGGNGRSYVVILEAGPSSDMSQSKQYFARISTKAGFCRVRVPFSAFRPVNPEDPPLDPFLVHTLTIRFEPKRQRPVDGLAGAQQDLRSFSLVFEYIKALPAGQETDFILVSCTGSGVEANRREQVLKAKRAGEDSLRRSGLGYTIIRPGPLKEEPGGQRALIFDQGNRISQGISCADVADICVKALHDSTARNKSFDVCHEYVAEQGIELYELVAHLPDKANNYLTPALSVLEKNT

Biological target: T1, PsbS-TurboID-eGFP (Arabidopsis thaliana) (UniProt Q9XF91)
T1 sequence: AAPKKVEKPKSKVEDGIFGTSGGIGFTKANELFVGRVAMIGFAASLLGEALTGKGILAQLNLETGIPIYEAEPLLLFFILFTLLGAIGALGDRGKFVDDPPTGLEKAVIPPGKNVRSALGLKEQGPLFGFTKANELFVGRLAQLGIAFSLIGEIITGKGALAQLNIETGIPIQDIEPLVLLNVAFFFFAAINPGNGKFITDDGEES
Assay: proximity labelling; TurboID fused to PsbS in stable Arabidopsis seedlings (5-day old); 50 µM biotin, 3 h, 22°C, under high light (600 µmol m-2 s-1) or in the dark; streptavidin magnetic beads, LC-MS/MS, LFQ against the control PTP-TurboID-eGFP (log2 FC >= 1)

Row | Binder | binding
1 | B1 | binds
2 | B2 | binds

These are yes or no findings as the source states them, for the method shown. In cells and extracts the contact can be indirect. A yes stands for co-enrichment or nearness to the bait. Other partners may have been found. Where a sequence is shown, tags or fusion partners need not be part of it.
